Source: PubChem BioAssay AID540276 (National Center for Advancing Translational Sciences (NCATS), 2011)
In all, about 300,000 compounds went through this assay and about 5,400 (1.8%) were called active. Inconclusive results, whose numbers are uncertain, are shown with a selection of clear calls. Calls come from the whole dose curve; tested in HEK293 cells. Potencies of inconclusive entries are doubtful fits and often do not repeat.

assay: qHTS for inhibitors of binding or entry into cells for Marburg Virus; details: Marburg virus pseudotyped entry inhibition, cell reporter; activity change, negative = inhibition: at 37.8 µM (top of the series) unless noted
% is set by controls: 0 for no effect and ±100 for the full control effect; potency is the fitted concentration of half-maximal effect.

Structure (SMILES) | activity change, negative = inhibition | Potency
O=C(Nc1ccccc1)Nc1cccc(C(F)(F)F)c1 | inactive: -6.45% [at 46.1 µM] | –
O=C(Nc1ccc2c(c1)CCCN2C(=O)c1ccco1)c1cc([N+](=O)[O-])ccc1Cl | – | inconclusive: 0.708 µM [inhibitor, full curve, poor fit]
CCOC(=O)N1CCC(NC(=O)c2cc(C(=O)NCc3ccc(F)cc3)ccc2CO)CC1 | – | inconclusive: 35.5 µM [activator, partial curve, poor fit]
COCCn1c(=NC(=O)c2cc(Cl)sc2Cl)sc2cc(S(N)(=O)=O)ccc21 | – | inconclusive: 17.8 µM [activator, partial curve, poor fit]
CCOC(=O)Cn1nc(C)c(NC(=O)c2ccc(Cl)c([N+](=O)[O-])c2)c1C | – | inconclusive: 35.5 µM [inhibitor, single point]
CCCOc1ccc(-c2csc(N)n2)cc1[N+](=O)[O-] | – | inconclusive: 5.62 µM [activator, single point]
Fc1ccccc1C(c1nnnn1Cc1ccc2c(c1)OCO2)N1CCN(Cc2ccco2)CC1 (centres undefined) | – | inconclusive: 1.26 µM [activator, single point]
Cc1cccc(N(C(=O)c2nsc(Cl)c2Cl)C(C(=O)NC2CCCC2)c2ccc(O)cc2)c1C (centres undefined) | – | inconclusive: 10 µM [inhibitor, partial curve, poor fit]
CC(C)CNC(=O)COC(=O)c1ccc(Cl)c(S(N)(=O)=O)c1 | inactive: -11.2% [at 46.1 µM] | –
CN1CCN(CCOc2cccc(Cl)c2)CC1 | inactive: 7.49% | –
COc1cccc(CNC(=O)Cn2ncn3nc(-c4cccs4)cc3c2=O)c1 | inactive: -25.6% [at 46.1 µM] | –
Cc1noc(C)c1S(=O)(=O)N(CC(=O)Nc1ccc(F)cc1F)c1ccc(C(C)C)cc1 | – | inconclusive: 35.5 µM [inhibitor, single point]
CC12CCC3C(CC=C4CC(O)CCC43C)C1C/C(=C\c1cccc(F)c1)C2=O (centres undefined) | – | inconclusive: 0.355 µM [inhibitor, partial curve, poor fit]
CCN1CCN(c2oc(-c3ccc(COc4ccccc4C)o3)nc2C#N)CC1 | – | inconclusive: 2.82 µM [inhibitor, single point]
COc1ccc(C)cc1NC(=O)c1ccc(CN2CCN(c3ccccc3)CC2)cc1 | – | inconclusive: 5.62 µM [inhibitor, full curve, poor fit]
Cc1ccc(-c2noc(CCCC(=O)NC3CCCCC3)n2)cc1 | – | inconclusive: 12.6 µM [inhibitor, single point]
CC(/C=C/c1ccc(Cl)o1)=C\C(=O)O | inactive: 12.2% | –
CN1CCC(N(C)CC(=O)Nc2ccccc2N2CCOCC2)CC1 | – | inconclusive: 0.141 µM [inhibitor, full curve, poor fit]
Cc1ccc(C2CC(c3ccccc3)=NN2c2ccccc2)o1 (centres undefined) | inactive: 9.3% | –
Cc1cc(NC(=O)Cn2nc(C(F)(F)F)c3c2CCC3)n(-c2ccccc2)n1 | – | inconclusive: 2.91 µM [inhibitor, full curve, poor fit]
COc1ccc(CC(=O)Nc2sccc2C#N)cc1S(=O)(=O)N1CCOCC1 | inactive: -2.73% | –
Cc1onc(-c2ccccc2)c1C(=O)n1nnc2ccccc21 | inactive: 4.75% | –
CCOC(=O)c1sc(=NC(=O)CCSc2ccccc2)n(C)c1C | inactive: 9.98% | –

Structure (SMILES) | activity change, negative = inhibition | Potency
CC(C)(c1ccccc1)c1ccc(OCC(O)CNC2CCN(Cc3ccccc3)CC2)cc1 (centres undefined) | – | inconclusive: 14.1 µM [inhibitor, single point]
Clc1ccc(OCc2nnc(-c3ccccc3Br)o2)c(Cl)c1 | – | inconclusive: 1.03 µM [activator, full curve]
O=C(c1ccccc1)N1c2nc(-c3ccco3)nn2C2(CCCCC2)[C@@H]2CCCC[C@@H]21 | – | inconclusive: 3.55 µM [inhibitor, single point]
Cc1cc2c(nc1C)CCCN2CC(O)CN1CCCc2nc(-c3ccc(Br)cc3)ccc21 (centres undefined) | – | inconclusive: 0.0024 µM [inhibitor, full curve, poor fit]
CCN1CCN(C(c2cccc(OC)c2)c2sc3nc(C)nn3c2O)CC1 (centres undefined) | – | inconclusive: 4.47 µM [activator, full curve]
Cc1ccc2[nH]c(CNC(=O)c3ccccc3F)cc2c1 | – | inconclusive: 28.2 µM [inhibitor, single point]
N/C(=N\OC(=O)c1ccc(Br)o1)c1ccccn1 | – | inconclusive: 35.5 µM [inhibitor, single point]
CCc1ccc(NC(=O)CSc2nc(=O)n(CCCN3CCOCC3)c3c2CCC3)cc1 | inactive: -17.8% | –
COC(=O)c1ccc(OCCOc2ccccc2C)cc1 | inactive: 1.62% | –
O=C(NC1CCCc2ccccc21)c1ccc(Br)cc1 (centres undefined) | – | inconclusive: 17.8 µM [inhibitor, single point]
CCCSc1ncnc2[nH]ncc12 | inactive: 2.96% [at 46.1 µM] | –
COc1ccc(/C=C(\C#N)C(=O)OCC(=O)Nc2c(C)cccc2C(C)C)cc1 | – | inconclusive: 6.31 µM [inhibitor, partial curve, poor fit]
COC(=O)Cn1c(=NC(=O)c2nc3ccccc3s2)sc2cc(S(C)(=O)=O)ccc21 | inactive: 19.2% | –
OCCC1CN(Cc2cnc(-c3ccc(Cl)cc3)nc2)CCN1C1CCCC1 (centres undefined) | – | inconclusive: 11.2 µM [inhibitor, partial curve, poor fit]
O=C(NNc1nc2ccccc2s1)Nc1ccccc1 | – | inconclusive: 1.12 µM [activator, partial curve, poor fit]
COC(OC)c1ccc(C#N)c(SCc2ccc(C)cc2)n1 | inactive: -3.83% | –
O=C(NC1CCCC1)C(c1ccc(N2CCOCC2)cc1)N(Cc1ccccc1)C(=O)c1ccco1 (centres undefined) | – | inactive
COCCCNC(=S)NNC(=O)Cn1nc(C)c(Br)c1C | inactive: 37.3% | –
CCn1c(=O)cc(SCC(=O)NCC2CCCO2)c2ccccc21 (centres undefined) | – | inconclusive: 2.06 µM [inhibitor, partial curve, poor fit]
CCOc1ccccc1NC(=O)C(=O)Nc1ccc2nc3n(c(=O)c2c1)CCCCC3 | inactive: 3.6% [at 46.1 µM] | –
Cc1nn(Cc2cccc(C(=O)NN)c2)c(C)c1Cl | – | inconclusive: 12.6 µM [inhibitor, single point]
Cc1nc2c3ccccc3nc(SCC(=O)c3ccc(Cl)cc3)n2n1 | inactive: -26.1% | –
CC(C)NS(=O)(=O)c1ccc(CCC(=O)Nc2ccc3c(c2)OCCO3)cc1 | – | inconclusive: 0.562 µM [activator, full curve]

Quoted from the listing.
COc1ccc(/C=C(\C#N)C(=O)OCC(=O)Nc2c(C)cccc2C(C)C)cc1 – Potency: inconclusive: 6.31 µM [inhibitor, partial curve, poor fit]
CCOc1ccccc1NC(=O)C(=O)Nc1ccc2nc3n(c(=O)c2c1)CCCCC3 – activity change, negative = inhibition: inactive: 3.6% [at 46.1 µM]
O=C(c1ccccc1)N1c2nc(-c3ccco3)nn2C2(CCCCC2)[C@@H]2CCCC[C@@H]21 – Potency: inconclusive: 3.55 µM [inhibitor, single point]
Clc1ccc(OCc2nnc(-c3ccccc3Br)o2)c(Cl)c1 – Potency: inconclusive: 1.03 µM [activator, full curve]

Next part.

Structure (SMILES) | activity change, negative = inhibition | Potency
COc1ccc(C(=O)Nc2ccc(S(=O)(=O)Nc3onc(C)c3C)cc2)cc1 | – | inconclusive: 1 µM [activator, partial curve, poor fit]
OC(c1cccc(Cl)c1)(c1cccc(Cl)c1)C1CN2CCC1CC2 (centres undefined) | – | inconclusive: 22.4 µM [inhibitor, single point]
O=C(Nc1ccc(Cl)cc1)N1CCCN(Cc2ccccc2F)C1 | – | inconclusive: 16.4 µM [inhibitor, partial curve, poor fit]
CC(C)Cn1c(-c2cccc(Br)c2)nc2ccccc21 | – | inconclusive: 0.631 µM [inhibitor, full curve, poor fit]
C/C(=N\Nc1cccc(C(=O)O)c1)c1ccc(Cl)s1 | – | inconclusive: 2.24 µM [activator, partial curve, poor fit]
NC(=O)c1nsc(C(=O)N(c2ccccc2)C(C(=O)NCc2ccc(F)cc2)c2ccco2)c1N (centres undefined) | – | inconclusive: 28.2 µM [inhibitor, single point]
Cc1ccc2nc(-c3ccccc3)c(CN3CCSCC3)n2c1 | – | inconclusive: 35.5 µM [inhibitor, single point]
Cc1ccc(CN2CC(C(=O)N3CCN(S(=O)(=O)c4ccc(C(C)C)cc4)CC3)CC2=O)cc1 (centres undefined) | – | inconclusive: 35.5 µM [inhibitor, single point]
O=C(/C=C\c1ccccc1)c1ccccc1O | inactive: 5.82% [at 14.2 µM] | –
CCn1c(NC(=O)c2ccc(COc3ccc(C)cc3[N+](=O)[O-])o2)nc2ccccc21 | – | inconclusive: 4.11 µM [inhibitor, single point]
O=C(NCCCN1CCCC1=O)c1cccnc1 | inactive: 23.4% | –
O=C(Nc1ccc(Cl)cc1)c1ccc(S(=O)(=O)N2CCOCC2)cc1 | – | inconclusive: 15.8 µM [inhibitor, partial curve, poor fit]
CCOc1ccc(N/C(C)=C/C(=O)c2ccc3c(c2)OCCO3)cc1 | – | inconclusive: 2.24 µM [activator, partial curve, poor fit]
CCn1c(COc2ccccc2C)nnc1SCC(=O)N1CCCCC1 | inactive: -1.02% | –
O=C(Oc1c(-c2ccccc2)c(=O)n2c3c(cccc13)CC2)c1cccc([N+](=O)[O-])c1 | – | inconclusive: 35.5 µM [inhibitor, partial curve, poor fit]
COc1cc(/C=C(/C(=O)c2cccs2)c2nc3ccccc3[nH]2)ccc1O | – | active: 4.11 µM
C/C(=N\N1CCCCC1c1cccnc1)c1c(O)n(C2CCCCC2)c(=S)[nH]c1=O (centres undefined) | – | active: 14.6 µM
Cc1ccc(Cn2ccc(NC(=O)c3cc(C)on3)n2)cc1 | – | inconclusive: 10 µM [activator, partial curve]
Cn1nc(CC(=O)Nc2ccc(N3CCN(C(=O)OC(C)(C)C)CC3)cc2)c2ccccc2c1=O | inactive: 21.1% | –
COc1cc(Cl)ccc1OCc1cc(C(=O)N(C)Cc2cccc3cnccc23)no1 | – | inconclusive: 35.5 µM [inhibitor, single point]
CC(C)Oc1ccc(C(=O)NCC(=O)O)cc1 | – | inconclusive: 5.62 µM [activator, single point]
O=C(NCc1cccc(Cl)c1)c1ccc(-c2csnn2)cc1 | – | inconclusive: 35.5 µM [inhibitor, single point]
C/C(=N\NC(=S)Nc1ccccc1C)c1ccc(O)cc1 | inactive: -8.15% [at 46.1 µM] | –
